From the supplement of paper PMC8728848
Some of the results follow.

Legend:
Test in all cases: glycan array binding signal (z-score within array); higher = stronger binding
Conditions in all cases: glycan notation: IUPAC condensed, linker removed
[1] = molecular target: GlcNAc(b1-3)Gal(b1-4)GlcNAc(b1-3)Gal(b1-4)GlcNAc(b1-2)Man(a1-3)[GlcNAc(b1-3)Gal(b1-4)GlcNAc(b1-3)Gal(b1-4)GlcNAc(b1-2)Man(a1-6)]Man(b1-4)GlcNAc(b1-4)[Fuc(a1-6)]GlcNAc
Method in brief: (§1)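 From the Consortium for Functional Glycomics database, 3228 arrays were curated, keeping only those whose protein sequence was available. Binding is given as a within-array Z-score averaged across arrays sharing a protein sequence and across linkers. Negative Z-scores can be read as non-binding.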

[2] = molecular target: GlcNAc(b1-3)Gal(b1-4)GlcNAc(b1-3)Gal(b1-4)GlcNAc(b1-2)[GlcNAc(b1-3)Gal(b1-4)GlcNAc(b1-3)Gal(b1-4)GlcNAc(b1-6)]Man(a1-6)[GlcNAc(b1-3)Gal(b1-4)GlcNAc(b1-3)Gal(b1-4)GlcNAc(b1-2)Man(a1-3)]Man(b1-4)GlcNAc(b1-4)[Fuc(a1-6)]GlcNAc
Method in brief: as §1

[3] = molecular target: GlcNAc(b1-3)Gal(b1-4)GlcNAc(b1-3)Gal(b1-4)GlcNAc(b1-3)Gal(b1-4)GlcNAc(b1-2)Man(a1-3)[GlcNAc(b1-3)Gal(b1-4)GlcNAc(b1-3)Gal(b1-4)GlcNAc(b1-3)Gal(b1-4)GlcNAc(b1-2)Man(a1-6)]Man(b1-4)GlcNAc(b1-4)GlcNAc
Method in brief: as §1

[4] = molecular target: GlcNAc(b1-3)Gal(b1-4)GlcNAc(b1-3)Gal(b1-4)GlcNAc(b1-3)Gal(b1-4)GlcNAc(b1-2)Man(a1-3)[GlcNAc(b1-3)Gal(b1-4)GlcNAc(b1-3)Gal(b1-4)GlcNAc(b1-3)Gal(b1-4)GlcNAc(b1-2)Man(a1-6)]Man(b1-4)GlcNAc(b1-4)[Fuc(a1-6)]GlcNAc
Method in brief: as §1

[5] = molecular target: GlcNAc(b1-3)Gal(b1-4)GlcNAc(b1-3)Gal(b1-4)GlcNAc(b1-3)Gal(b1-4)GlcNAc(b1-2)[GlcNAc(b1-3)Gal(b1-4)GlcNAc(b1-3)Gal(b1-4)GlcNAc(b1-3)Gal(b1-4)GlcNAc(b1-6)]Man(a1-6)[GlcNAc(b1-3)Gal(b1-4)GlcNAc(b1-3)Gal(b1-4)GlcNAc(b1-3)Gal(b1-4)GlcNAc(b1-2)Man(a1-3)]Man(b1-4)GlcNAc(b1-4)[Fuc(a1-6)]GlcNAc
Method in brief: as §1

[6] = molecular target: GlcNAc(b1-3)Gal(b1-4)GlcNAc(b1-3)Gal(b1-4)GlcNAc(b1-3)Gal(b1-4)GlcNAc(b1-3)Gal(b1-4)GlcNAc(b1-2)Man(a1-3)[GlcNAc(b1-3)Gal(b1-4)GlcNAc(b1-3)Gal(b1-4)GlcNAc(b1-3)Gal(b1-4)GlcNAc(b1-3)Gal(b1-4)GlcNAc(b1-2)Man(a1-6)]Man(b1-4)GlcNAc(b1-4)GlcNAc
Method in brief: as §1

[7] = molecular target: GlcNAc(b1-3)Gal(b1-4)GlcNAc(b1-3)Gal(b1-4)GlcNAc(b1-3)Gal(b1-4)GlcNAc(b1-3)Gal(b1-4)GlcNAc(b1-2)Man(a1-3)[GlcNAc(b1-3)Gal(b1-4)GlcNAc(b1-3)Gal(b1-4)GlcNAc(b1-3)Gal(b1-4)GlcNAc(b1-3)Gal(b1-4)GlcNAc(b1-2)Man(a1-6)]Man(b1-4)GlcNAc(b1-4)[Fuc(a1-6)]GlcNAc
Method in brief: as §1

[8] = molecular target: GlcNAc(b1-3)Gal(b1-4)GlcNAc(b1-3)Gal(b1-4)GlcNAc(b1-3)Gal(b1-4)GlcNAc(b1-3)Gal(b1-4)GlcNAc(b1-2)[GlcNAc(b1-3)Gal(b1-4)GlcNAc(b1-3)Gal(b1-4)GlcNAc(b1-3)Gal(b1-4)GlcNAc(b1-3)Gal(b1-4)GlcNAc(b1-6)]Man(a1-6)[GlcNAc(b1-3)Gal(b1-4)GlcNAc(b1-3)Gal(b1-4)GlcNAc(b1-3)Gal(b1-4)GlcNAc(b1-3)Gal(b1-4)GlcNAc(b1-2)Man(a1-3)]Man(b1-4)GlcNAc(b1-4)[Fuc(a1-6)]GlcNAc
Method in brief: as §1

[9] = molecular target: GlcNAc(b1-3)Gal(b1-4)GlcNAc(b1-3)Gal(b1-4)GlcNAc(b1-3)GalNAc
Method in brief: as §1

[10] = molecular target: GlcNAc(b1-3)Gal(b1-4)GlcNAc(b1-3)GalNAc
Method in brief: as §1

[11] = molecular target: GlcNAc(b1-3)Gal(b1-4)GlcNAc(b1-3)[GlcNAc(b1-3)Gal(b1-4)GlcNAc(b1-3)]GalNAc
Method in brief: as §1

[12] = molecular target: GlcNAc(b1-3)Gal(b1-4)GlcNAc(b1-6)[Gal(b1-3)]GalNAc
Method in brief: as §1

[13] = molecular target: GlcNAc(b1-3)Gal(b1-4)GlcNAc(b1-6)[GlcNAc(b1-3)Gal(b1-3)]GalNAc
Method in brief: as §1

[14] = molecular target: GlcNAc(b1-3)Gal(b1-4)GlcNAc(b1-6)[GlcNAc(b1-3)]Gal(b1-4)GlcNAc
Method in brief: as §1

GlcNAc(b1-3)GalNAc = molecular target: GlcNAc(b1-3)GalNAc
Method in brief: as §1

GlcNAc(b1-3)Man = molecular target: GlcNAc(b1-3)Man
Method in brief: as §1

[15] = molecular target: GlcNAc(b1-3)[GlcNAc(b1-4)][GlcNAc(b1-6)]GlcNAc
Method in brief: as §1

[16] = molecular target: GlcNAc(b1-3)[GlcNAc(b1-6)]Gal(b1-4)GlcNAc
Method in brief: as §1

[17] = molecular target: GlcNAc(b1-3)[GlcNAc(b1-6)]GalNAc
Method in brief: as §1

[18] = molecular target: GlcNAc(b1-4)Gal(b1-4)GlcNAc
Method in brief: as §1

GlcNAc(b1-4)GlcNAc = molecular target: GlcNAc(b1-4)GlcNAc
Method in brief: as §1

[19] = molecular target: GlcNAc(b1-4)GlcNAc(b1-4)GlcNAc
Method in brief: as §1

[20] = molecular target: GlcNAc(b1-4)GlcNAc(b1-4)GlcNAc(b1-4)GlcNAc(b1-4)GlcNAc
Method in brief: as §1

[21] = molecular target: GlcNAc(b1-4)GlcNAc(b1-4)GlcNAc(b1-4)GlcNAc(b1-4)GlcNAc(b1-4)GlcNAc
Method in brief: as §1

[22] = molecular target: GlcNAc(b1-4)[GlcNAc(b1-6)]GalNAc
Method in brief: as §1

[23] = molecular target: GlcNAc(b1-6)Gal(b1-4)GlcNAc
Method in brief: as §1

GlcNAc(b1-6)GalNAc = molecular target: GlcNAc(b1-6)GalNAc
Method in brief: as §1

[24] = molecular target: GlcNAc6S(b1-3)Gal(b1-4)GlcNAc
Method in brief: as §1

Kdn(a2-3)Gal(b1-3)GalNAc = molecular target: Kdn(a2-3)Gal(b1-3)GalNAc
Method in brief: as §1

Kdn(a2-3)Gal(b1-3)GlcNAc = molecular target: Kdn(a2-3)Gal(b1-3)GlcNAc
Method in brief: as §1

Kdn(a2-3)Gal(b1-4)Glc = molecular target: Kdn(a2-3)Gal(b1-4)Glc
Method in brief: as §1

Kdn(a2-3)Gal(b1-4)GlcNAc = molecular target: Kdn(a2-3)Gal(b1-4)GlcNAc
Method in brief: as §1

[25] = molecular target: Kdn(a2-3)Gal(b1-4)[Fuc(a1-3)]GlcNAc
Method in brief: as §1

Kdn(a2-6)Gal(b1-4)GlcNAc = molecular target: Kdn(a2-6)Gal(b1-4)GlcNAc
Method in brief: as §1

[26] = molecular target: Man(a1-2)Man(a1-2)Man(a1-3)Man
Method in brief: as §1

[27] = molecular target: Man(a1-2)Man(a1-2)Man(a1-6)[Man(a1-3)]Man
Method in brief: as §1

Man(a1-2)Man(a1-3)Man = molecular target: Man(a1-2)Man(a1-3)Man
Method in brief: as §1

[28] = molecular target: Man(a1-2)Man(a1-3)[Man(a1-2)Man(a1-6)]Man
Method in brief: as §1

B1: Wzz (Escherichia coli) (protein)
chain: MRTWKFPSVRVMMRVENNNVSGQNHDPEQIDLIDLLVQLWRGKMTIIISVIVAIVLAIGYLAVAKEKWTSTAIITQPDVGQIAGYNNAMNVIYGQAAPKVSDLQETLIGRFSSAFSALAETLDNQEEPEKLTIEPSVKNQQLPLTVSYVGQTAEGAQMKLAQYIQQVDDKVNQELEKDLKDNIALGRKNLQDSLRTQEVVAQEQKDLRIRQIQEALQYANQAQVTKPQIQQTGEDITQDTLFLLGSEALESMIKHEATRPLVFSSNYYQTRQNLLDIDNLDVDKLDIHAYLYVMKPTLPIRRDSPKKAITLILAVLLGGMVGAGIVLGRNALRNYNAK
glycan array binding signal (z-score) [1]: -0.089 | glycan array binding signal (z-score) [2]: -0.222 | glycan array binding signal (z-score) [3]: 0.265 | glycan array binding signal (z-score) [4]: -0.653 | glycan array binding signal (z-score) [5]: -0.191 | glycan array binding signal (z-score) [6]: -0.293 | glycan array binding signal (z-score) [7]: -0.384 | glycan array binding signal (z-score) [8]: 0.478 | glycan array binding signal (z-score) [9]: 0.801 | glycan array binding signal (z-score) [10]: 0.061 | glycan array binding signal (z-score) [11]: -0.198 | glycan array binding signal (z-score) [12]: -0.34 | glycan array binding signal (z-score) [13]: -0.084 | glycan array binding signal (z-score) [14]: 0.333 | glycan array binding signal (z-score) (GlcNAc(b1-3)GalNAc): -0.512 | glycan array binding signal (z-score) (GlcNAc(b1-3)Man): 0.005 | glycan array binding signal (z-score) [15]: -0.524 | glycan array binding signal (z-score) [16]: 0.869 | glycan array binding signal (z-score) [17]: -0.384 | glycan array binding signal (z-score) [18]: -0.166 | glycan array binding signal (z-score) (GlcNAc(b1-4)GlcNAc): 0.05 | glycan array binding signal (z-score) [19]: -0.438 | glycan array binding signal (z-score) [20]: 0.458 | glycan array binding signal (z-score) [21]: 0.704 | glycan array binding signal (z-score) [22]: -0.637 | glycan array binding signal (z-score) [23]: -0.244 | glycan array binding signal (z-score) (GlcNAc(b1-6)GalNAc): -0.259 | glycan array binding signal (z-score) [24]: 0.081 | glycan array binding signal (z-score) (Kdn(a2-3)Gal(b1-3)GalNAc): 0.679 | glycan array binding signal (z-score) (Kdn(a2-3)Gal(b1-3)GlcNAc): 1.36 | glycan array binding signal (z-score) (Kdn(a2-3)Gal(b1-4)Glc): 0.436 | glycan array binding signal (z-score) (Kdn(a2-3)Gal(b1-4)GlcNAc): 0.077 | glycan array binding signal (z-score) [25]: 0.454 | glycan array binding signal (z-score) (Kdn(a2-6)Gal(b1-4)GlcNAc): -0.175 | glycan array binding signal (z-score) [26]: -0.639 | glycan array binding signal (z-score) [27]: -0.326 | glycan array binding signal (z-score) (Man(a1-2)Man(a1-3)Man): -0.72 | glycan array binding signal (z-score) [28]: -1.03
